These are yes or no findings as the source states them, for the method shown. Some entries that bind do so weakly or less than the wild type.
B1: Antibody 13 (antibody, V domains shown)
VH: QVQLVQSGAEVKKPGSSVKVSCKVSGGTFSSYSISWVRQAPGQGLEWMGGIIPIFGTTNYAQKFQGRVTITADESTSTAYMDLSSLKSEDTAMYYCEGGRVGADFDYWGQGTLVTVSS
VL: SSDLTQGPAVSVALGQTVRITCQGDSLRNYYASWYQQKPGQAPVPVIYGKNDRPSGIPDRFSGSISGNTASLTITGAQAEDEAHYYCNSRDSSGNHVVFGGGTKLTVL
B2: Antibody 1 (antibody, V domains shown)
VH: QVQLVQSGAEVKKPGSSVKVSCKVSGGTFSSYSISWVRQAPGQGLEWMGGIIPIFGTTNYAQKFQGRVTITADESTSTAYMDLSSLKSEDTAMYYCEGGRVGADFDYWGQGTLVTVSS
VL: SSDLTQGPAVSVALGQTVRITCQGDSLRNYYASWYQQKPGQAPVPVIYGKNDRPSGIPDRFSGSISGNTASLTITGAQAEDEAHYYCNSRDSSGNHVVFGGGTKLTVL
B3: Antibody 2 (antibody, V domains shown)
VH: QVQLQESGPGLVKPSQTLSLTCTVSGGSITSDGYHWSWIRQYPGKGLDWIGYIYYTGNTYYNPSLKSRVTISVGTSQNQFSLKLISVTAADTAVYYCARRLSTGPYFDYWGQGTLVTVSS
VL: QSALTQPASVSGSPGQSITISCTGTSSDVGGYEFVSWYQHHPGKAPKLMIYDVSSRPSGVSNRFSGSKSGNTASLTISGLQAEDEADYYCSSYTRSSTVVFGGGARLTVL
B4: Antibody 3 (antibody, V domains shown)
VH: EVQLVESGGGLVQPGRSLRLSCAASGFTFDDYAMHWVRQAPGKGLEWVSGITWNSGNIGYADSVKGRFTISRDNAKNSLYLHMNSLRIEDTAFYYCAKGRAVSDTFDIWGQGTMVTVSS
VL: SYELNQPPSVSVSPGQTASITCSGDKLGDKYASWYQQKPGQSPVVAIYQNSKRPSGIPERFSASNSGNTATLTISGTQALDEADYYCQAWDSSTWVFGGGTKLTVL
B5: Antibody 8 (antibody, V domains shown)
VH: QVQLQESGPGLVKPSETLSLTCAVSGYSISSGYYWGWIRQPPGKGLDWIGSIYYSGSTYYNPSLKSRVTISVDTSKNQISLKLSSVTAADTAVYYCATTYSDIVTGYYNDAFDIWGQGTMVTVSS
VL: EIVMTQSPATLSVSPGERATLSCRASQRINSNLAWYQQKPGQAPRLLIYGASTRATGIPARFSGSGSGTEFTLTISSLQSEDFAAYYCQQYDNWPLTFGGGTKVEIK
B6: Antibody 12 (antibody, V domains shown)
VH: QVQLQESGPGLVKPSETLSLTCGVSGGSISSTNWWSWVRQPPGKGLEWIGEIYQTGSTDYDPSLKSRVTISIDKSKNQFSLKLYSVTAADTAVYYCARRFGELDYWGQGTLVTVSS
VL: EIVMTQSPATLSVSPGERATLSCRASQSVTSNLAWYQQKPGQAPRLLIYDASTRATGIPARFSGSGSGTEFTLTISSLQSEDFAIYYCQQYNNWPTFGQGTRLEIK
B7: Antibody 27 (antibody, V domains shown)
VH: QVQLQQSGPGLVKPSQTLSLTCAISGDSVSNNNAAWNWIRQSPSRGLEWLGGTYYRSKWYNDYAVSVKSRIIINPVTSKNQFSLQLNSVTPEDTAVYYCARGSSWYRFFDYWGQGTLVTVSS
VL: EIVLTQSPGTLSLSPGERATLSCRASQSVGSSYLAWYQQKPGQAPRLLISGASGRATGIPDRFSGSGSGTDFTLTISRLEPEDFTVYYCQQYGSSPYTFGQGTKLEIK
B8: Antibody 28 (antibody, V domains shown)
VH: QVQLQQSGTELVRPGTSVKMSCKAAGYTFTNHWIGWVKQRPGHGLEWIGDIYPGGGYTNYNEKFKGKASLTADTSSTTAYMQLSSLTSEDSAIYYCSRFGDQNWAWFAYWGQGTLVTVSA
VL: DIQMNQSPSSLSASLGDTITITCRASQNIHMWLSWYQQKPGNIPKLLIFKTSNLHTGVPSRFSGSGSGTDFTLTISSLQPEDIATYYCLQGQSYPFTFGGGTKLEIK

Sequences of proteins named here, by UniProt entry; tags and fusion partners are left off. A change or cut given only in a name is not applied to a line headed by its entry.
UniProt P04003: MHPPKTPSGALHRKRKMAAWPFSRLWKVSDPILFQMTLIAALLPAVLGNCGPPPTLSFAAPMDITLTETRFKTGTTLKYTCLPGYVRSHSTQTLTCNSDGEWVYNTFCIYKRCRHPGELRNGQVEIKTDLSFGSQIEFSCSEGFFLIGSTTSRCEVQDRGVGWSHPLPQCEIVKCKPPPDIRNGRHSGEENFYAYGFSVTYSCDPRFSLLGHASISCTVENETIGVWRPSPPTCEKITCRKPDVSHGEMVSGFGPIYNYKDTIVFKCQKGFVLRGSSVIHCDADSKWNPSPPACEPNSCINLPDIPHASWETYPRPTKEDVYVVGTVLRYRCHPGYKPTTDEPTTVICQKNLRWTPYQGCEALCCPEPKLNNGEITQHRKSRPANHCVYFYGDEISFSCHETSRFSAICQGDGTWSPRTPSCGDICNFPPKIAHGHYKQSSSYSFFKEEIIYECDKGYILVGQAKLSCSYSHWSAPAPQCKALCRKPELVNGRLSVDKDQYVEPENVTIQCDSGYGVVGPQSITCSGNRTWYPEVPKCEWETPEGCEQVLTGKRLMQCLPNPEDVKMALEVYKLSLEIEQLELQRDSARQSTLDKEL
UniProt P20851: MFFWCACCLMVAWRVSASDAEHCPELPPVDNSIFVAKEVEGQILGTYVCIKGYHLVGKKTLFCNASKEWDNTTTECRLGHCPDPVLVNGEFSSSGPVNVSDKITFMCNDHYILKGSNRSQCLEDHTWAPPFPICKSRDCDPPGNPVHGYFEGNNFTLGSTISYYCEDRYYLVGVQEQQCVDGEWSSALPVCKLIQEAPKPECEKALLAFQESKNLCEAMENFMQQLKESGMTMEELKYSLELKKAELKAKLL

Legend:
[1] = biological target: T1, reduced Protein S (human) (UniProt P07225); assay: Western blot
T1 sequence: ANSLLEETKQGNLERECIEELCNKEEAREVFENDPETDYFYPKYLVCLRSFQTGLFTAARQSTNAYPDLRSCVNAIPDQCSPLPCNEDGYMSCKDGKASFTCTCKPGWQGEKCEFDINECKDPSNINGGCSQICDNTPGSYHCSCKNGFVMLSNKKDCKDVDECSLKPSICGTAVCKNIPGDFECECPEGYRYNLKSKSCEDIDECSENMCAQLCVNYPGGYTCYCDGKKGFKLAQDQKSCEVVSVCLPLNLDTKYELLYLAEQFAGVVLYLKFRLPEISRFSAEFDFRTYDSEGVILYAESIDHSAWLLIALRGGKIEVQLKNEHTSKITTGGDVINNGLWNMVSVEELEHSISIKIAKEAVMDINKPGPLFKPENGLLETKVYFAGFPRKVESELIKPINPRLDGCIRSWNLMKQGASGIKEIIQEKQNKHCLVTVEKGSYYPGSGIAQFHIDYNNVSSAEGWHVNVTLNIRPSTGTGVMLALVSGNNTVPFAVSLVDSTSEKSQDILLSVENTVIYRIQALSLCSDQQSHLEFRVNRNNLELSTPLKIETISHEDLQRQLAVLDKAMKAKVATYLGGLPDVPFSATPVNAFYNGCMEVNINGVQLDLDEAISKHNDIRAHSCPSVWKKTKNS

[2] = biological target: Protein S-C4BP complex (human) (UniProt P04003+P20851); assay: BLI Octet; antibody on anti-human Fc probe; 100 µg/ml C4BP (C4BP-Protein S complex)

Binder | binding [1] | binding [2]
B1 | binds | –
B2 | – | binds
B3 | – | binds
B4 | – | binds
B5 | – | binds
B6 | – | binds
B7 | – | binds
B8 | – | binds

— US20230083243A1
